Results deposited as PubChem BioAssay AID1259268 (Sanger Institute, 2017)
Shown is one part, drawn at random, of 160 reagents. Over the whole deposit, 58 (36%) are marked active. 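Trametinib by itself roughly halved viability, making its arm harsher than the cetuximab and BYL719 arms.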 Reagents against one gene are numbered here. Further read-outs or replicates are left out here. The record does not give: the amount of reagent, the time to read-out.

Screen: 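Kinase silencing that acts in synergy with trametinib, cetuximab or BYL719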 (follow-up of hits)
Cell system: human SNUC1 colorectal cancer cells
Knock-down reagent: single siRNA against human genes
Treatment: anchor drugs added a day after transfection: BYL719 1 µM, cetuximab 5 µg/ml or trametinib 10 nM, versus DMSO vehicle
Read-out: 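Replicate-averaged viability as a fraction of the non-targeting control, and a score of how far knock-down plus drug exceeds their separate effects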
Reading the numbers: synergy score with trametinib and synergy score with cetuximab and synergy score with BYL719: higher = stronger synergy of knock-down with drug
Hit rule: 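Inactive when no drug gives a synergy score over 0.1, otherwise active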
Calls: active = synergy with at least one drug; inactive = no synergy with any drug

PLK1 (polo like kinase 1) #1
- synergy score with trametinib: 0.0576
- synergy score with cetuximab: 0.248
- synergy score with BYL719: -0.0995
- activity call: active

PLK1 (polo like kinase 1) #2
- synergy score with trametinib: 0.0367
- synergy score with cetuximab: 0.0654
- synergy score with BYL719: 0.0345
- activity call: inactive

PLK1 (polo like kinase 1) #3
- synergy score with trametinib: -0.000437
- synergy score with cetuximab: -0.0977
- synergy score with BYL719: -0.0608
- activity call: inactive

PLK1 (polo like kinase 1) #4
- synergy score with trametinib: -0.14
- synergy score with cetuximab: -0.105
- synergy score with BYL719: -0.0859
- activity call: inactive

COASY (Coenzyme A synthase) #1
- synergy score with trametinib: -0.105
- synergy score with cetuximab: -0.112
- synergy score with BYL719: -0.0964
- activity call: inactive

COASY (Coenzyme A synthase) #2
- synergy score with trametinib: 0.0202
- synergy score with cetuximab: 0.0136
- synergy score with BYL719: 0.0326
- activity call: inactive

COASY (Coenzyme A synthase) #3
- synergy score with trametinib: 0.144
- synergy score with cetuximab: -0.0242
- synergy score with BYL719: -0.074
- activity call: active

COASY (Coenzyme A synthase) #4
- synergy score with trametinib: 0.0221
- synergy score with cetuximab: -0.0338
- synergy score with BYL719: -0.147
- activity call: inactive

Next part; the last 2 above are carried over.
COASY (Coenzyme A synthase) #3
- synergy score with trametinib: 0.144
- synergy score with cetuximab: -0.0242
- synergy score with BYL719: -0.074
- activity call: active

COASY (Coenzyme A synthase) #4
- synergy score with trametinib: 0.0221
- synergy score with cetuximab: -0.0338
- synergy score with BYL719: -0.147
- activity call: inactive

GRK5 (G protein-coupled receptor kinase 5) #1
- synergy score with trametinib: 0.102
- synergy score with cetuximab: -0.0663
- synergy score with BYL719: -0.23
- activity call: active

GRK5 (G protein-coupled receptor kinase 5) #2
- synergy score with trametinib: 0.0045
- synergy score with cetuximab: -0.0663
- synergy score with BYL719: -0.23
- activity call: inactive

GRK5 (G protein-coupled receptor kinase 5) #3
- synergy score with trametinib: 0.127
- synergy score with cetuximab: -0.0164
- synergy score with BYL719: -0.0387
- activity call: active

GRK5 (G protein-coupled receptor kinase 5) #4
- synergy score with trametinib: 0.0713
- synergy score with cetuximab: -0.0599
- synergy score with BYL719: -0.242
- activity call: inactive
